First the molecules themselves.
B1: NtrC (protein, UniProt P0AFB8 1-469)
chain: MQRGIVWVVDDDSSIRWVLERALAGAGLTCTTFENGAEVLEALASKTPDVLLSDIRMPGMDGLALLKQIKQRHPMLPVIIMTAHSDLDAAVSAYQQGAFDYLPKPFDIDEAVALVERAISHYQEQQQPRNVQLNGPTTDIIGEAPAMQDVFRIIGRLSRSSISVLINGESGTGKELVAHALHRHSPRAKAPFIALNMAAIPKDLIESELFGHEKGAFTGANTIRQGRFEQADGGTLFLDEIGDMPLDVQTRLLRVLADGQFYRVGGYAPVKVDVRIIAATHQNLEQRVQEGKFREDLFHRLNVIRVHLPPLRERREDIPRLARHFLQVAARELGVEAKLLHPETEAALTRLAWPGNVRQLENTCRWLTVMAAGQEVLIQDLPGELFESTVAESTSQMQPDSWATLLAQWADRALRSGHQNLLSEAQPELERTLLTTALRHTQGHKQEAARLLGWGRNTLTRKLKELGME
B2: RNA helicase DeaD (protein, UniProt P0A9P6 1-629)
chain: MAEFETTFADLGLKAPILEALNDLGYEKPSPIQAECIPHLLNGRDVLGMAQTGSGKTAAFSLPLLQNLDPELKAPQILVLAPTRELAVQVAEAMTDFSKHMRGVNVVALYGGQRYDVQLRALRQGPQIVVGTPGRLLDHLKRGTLDLSKLSGLVLDEADEMLRMGFIEDVETIMAQIPEGHQTALFSATMPEAIRRITRRFMKEPQEVRIQSSVTTRPDISQSYWTVWGMRKNEALVRFLEAEDFDAAIIFVRTKNATLEVAEALERNGYNSAALNGDMNQALREQTLERLKDGRLDILIATDVAARGLDVERISLVVNYDIPMDSESYVHRIGRTGRAGRAGRALLFVENRERRLLRNIERTMKLTIPEVELPNAELLGKRRLEKFAAKVQQQLESSDLDQYRALLSKIQPTAEGEELDLETLAAALLKMAQGERTLIVPPDAPMRPKREFRDRDDRGPRDRNDRGPRGDREDRPRRERRDVGDMQLYRIEVGRDDGVEVRHIVGAIANEGDISSRYIGNIKLFASHSTIELPKGMPGEVLQHFTRTRILNKPMNMQLLGDAQPHTGGERRGGGRGFGGERREGGRNFSGERREGGRGDGRRFSGERREGRAPRRDDSTGRRRFGGDA
B3: AccA (protein, UniProt P0ABD5 1-319)
chain: MSLNFLDFEQPIAELEAKIDSLTAVSRQDEKLDINIDEEVHRLREKSVELTRKIFADLGAWQIAQLARHPQRPYTLDYVRLAFDEFDELAGDRAYADDKAIVGGIARLDGRPVMIIGHQKGRETKEKIRRNFGMPAPEGYRKALRLMQMAERFKMPIITFIDTPGAYPGVGAEERGQSEAIARNLREMSRLGVPVVCTVIGEGGSGGALAIGVGDKVNMLQYSTYSVISPEGCASILWKSADKAPLAAEAMGIIAPRLKELKLIDSIIPEPLGGAHRNPEAMAASLKAQLLADLADLDVLSTEDLKNRRYQRLMSYGYA
B4: CytR (protein, UniProt P0ACN7 1-341)
chain: MKAKKQETAATMKDVALKAKVSTATVSRALMNPDKVSQATRNRVEKAAREVGYLPQPMGRNVKRNESRTILVIVPDICDPFFSEIIRGIEVTAANHGYLVLIGDCAHQNQQEKTFIDLIITKQIDGMLLLGSRLPFDASIEEQRNLPPMVMANEFAPELELPTVHIDNLTAAFDAVNYLYEQGHKRIGCIAGPEEMPLCHYRLQGYVQALRRCGIMVDPQYIARGDFTFEAGSKAMQQLLDLPQPPTAVFCHSDVMALGALSQAKRQGLKVPEDLSIIGFDNIDLTQFCDPPLTTIAQPRYEIGREAMLLLLDQMQGQHVGSGSRLMDCELIIRGSTRALP
B5: UspG (protein, UniProt P39177 1-142)
chain: MYKTIIMPVDVFEMELSDKAVRHAEFLAQDDGVIHLLHVLPGSASLSLHRFAADVRRFEEHLQHEAQERLQTMVSHFTIDPSRIKQHVRFGSVRDEVNELAEELGADVVVIGSRNPSISTHLLGSNASSVIRHANLPVLVVR
B6: SthA (protein, UniProt P27306 1-466)
chain: MPHSYDYDAIVIGSGPGGEGAAMGLVKQGARVAVIERYQNVGGGCTHWGTIPSKALRHAVSRIIEFNQNPLYSDHSRLLRSSFADILNHADNVINQQTRMRQGFYERNHCEILQGNARFVDEHTLALDCPDGSVETLTAEKFVIACGSRPYHPTDVDFTHPRIYDSDSILSMHHEPRHVLIYGAGVIGCEYASIFRGMDVKVDLINTRDRLLAFLDQEMSDSLSYHFWNSGVVIRHNEEYEKIEGCDDGVIMHLKSGKKLKADCLLYANGRTGNTDSLALQNIGLETDSRGQLKVNSMYQTAQPHVYAVGDVIGYPSLASAAYDQGRIAAQALVKGEATAHLIEDIPTGIYTIPEISSVGKTEQQLTAMKVPYEVGRAQFKHLARAQIVGMNVGTLKILFHRETKEILGIHCFGERAAEIIHIGQAIMEQKGGGNTIEYFVNTTFNYPTMAEAYRVAALNGLNRLF
B7: MiaB (protein, UniProt P0AEI1 1-474)
chain: MTKKLHIKTWGCQMNEYDSSKMADLLDATHGYQLTDVAEEADVLLLNTCSIREKAQEKVFHQLGRWKLLKEKNPDLIIGVGGCVASQEGEHIRQRAHYVDIIFGPQTLHRLPEMINSVRGDRSPVVDISFPEIEKFDRLPEPRAEGPTAFVSIMEGCNKYCTYCVVPYTRGEEVSRPSDDILFEIAQLAAQGVREVNLLGQNVNAWRGENYDGTTGSFADLLRLVAAIDGIDRIRFTTSHPIEFTDDIIEVYRDTPELVSFLHLPVQSGSDRILNLMGRTHTALEYKAIIRKLRAARPDIQISSDFIVGFPGETTEDFEKTMKLIADVNFDMSYSFIFSARPGTPAADMVDDVPEEEKKQRLYILQERINQQAMAWSRRMLGTTQRILVEGTSRKSIMELSGRTENNRVVNFEGTPDMIGKFVDVEITDVYPNSLRGKVVRTEDEMGLRVAETPESVIARTRKENDLGVGYYQP
B8: RlmG (protein, UniProt P42596 1-378)
chain: MSHLDNGFRSLTLQRFPATDDVNPLQAWEAADEYLLQQLDDTEIRGPVLILNDAFGALSCALAEHKPYSIGDSYISELATRENLRLNGIDESSVKFLDSTADYPQQPGVVLIKVPKTLALLEQQLRALRKVVTSDTRIIAGAKARDIHTSTLELFEKVLGPTTTTLAWKKARLINCTFNEPQLADAPQTVSWKLEGTDWTIHNHANVFSRTGLDIGARFFMQHLPENLEGEIVDLGCGNGVIGLTLLDKNPQAKVVFVDESPMAVASSRLNVETNMPEALDRCEFMINNALSGVEPFRFNAVLCNPPFHQQHALTDNVAWEMFHHARRCLKINGELYIVANRHLDYFHKLKKIFGNCTTIATNNKFVVLKAVKLGRRR
B9: ompF/C transcriptional regulator OmpR (protein, UniProt P0AA16 1-239)
chain: MQENYKILVVDDDMRLRALLERYLTEQGFQVRSVANAEQMDRLLTRESFHLMVLDLMLPGEDGLSICRRLRSQSNPMPIIMVTAKGEEVDRIVGLEIGADDYIPKPFNPRELLARIRAVLRRQANELPGAPSQEEAVIAFGKFKLNLGTREMFREDEPMPLTSGEFAVLKALVSHPREPLSRDKLMNLARGREYSAMERSIDVQISRLRRMVEEDPAHPRYIQTVWGLGYVFVPDGSKA
B10: plasmid copy number regulator PcnB (protein, UniProt P0ABF1 11-465)
chain: KVLSREESEAEQAVARPQVTVIPREQHAISRKDISENALKVMYRLNKAGYEAWLVGGGVRDLLLGKKPKDFDVTTNATPEQVRKLFRNCRLVGRRFRLAHVMFGPEIIEVATFRGHHEGNVSDRTTSQRGQNGMLLRDNIFGSIEEDAQRRDFTINSLYYSVADFTVRDYVGGMKDLKDGVIRLIGNPETRYREDPVRMLRAVRFAAKLGMRISPETAEPIPRLATLLNDIPPARLFEESLKLLQAGYGYETYKLLCEYHLFQPLFPTITRYFTENGDSPMERIIEQVLKNTDTRIHNDMRVNPAFLFAAMFWYPLLETAQKIAQESGLTYHDAFALAMNDVLDEACRSLAIPKRLTTLTRDIWQLQLRMSRRQGKRAWKLLEHPKFRAAYDLLALRAEVERNAELQRLVKWWGEFQVSAPPDQKGMLNELDEEPSPRRRTRRPRKRAPRREGTA

This is an account of results in paper PMC7353009, “Identification of Substrates of Cytoplasmic Peptidyl-Prolyl Cis/Trans Isomerases and Their Collective Essentiality in Escherichia Coli” (International Journal of Molecular Sciences, 2020).

Results are given in words; binding and its absence hold for the method and conditions named. In cells and extracts the contact can be indirect. Here binding means that the protein was enriched with, or labelled near, the bait; the list need not be complete. Tags and fused reporters may be left off the sequences shown.

The target in the first assay is T1, His6-tagged PpiB (wild type) (E. coli) (UniProt P23869).
T1 sequence: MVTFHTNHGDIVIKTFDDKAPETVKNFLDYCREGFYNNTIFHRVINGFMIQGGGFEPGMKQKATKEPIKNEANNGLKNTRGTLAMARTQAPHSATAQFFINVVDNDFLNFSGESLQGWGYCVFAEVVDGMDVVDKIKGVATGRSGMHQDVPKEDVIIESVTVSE
The experiment in a line: affinity purification with mass spectrometry; His6-tagged PPI induced with 0.1 mM IPTG in an E. coli T7 express derivative lacking all six PPIs (SR21984); soluble lysate on Ni-NTA beads, 50 mM NaH2PO4, 300 mM NaCl, eluted with a linear imidazole gradient (50-500 mM); co-eluting proteins resolved by SDS-PAGE (for FkpB also 2D gels) and identified by MALDI-TOF.
For the molecule B1, the binding result is on record as “binds”. As to B2, the binding entry is given as “binds”. As to B3, the binding result is reported as “binds”. In the case of B4, the binding result is “binds”. For the molecule B5, the binding entry is “binds”. As to B6, the binding result was “binds”.

On to B7, for which the binding entry is reported as “binds”.

The next assay concerns the target T2, Hexa-His-tagged FklB (wild type) (E. coli) (UniProt P0A9L3).
T2 sequence: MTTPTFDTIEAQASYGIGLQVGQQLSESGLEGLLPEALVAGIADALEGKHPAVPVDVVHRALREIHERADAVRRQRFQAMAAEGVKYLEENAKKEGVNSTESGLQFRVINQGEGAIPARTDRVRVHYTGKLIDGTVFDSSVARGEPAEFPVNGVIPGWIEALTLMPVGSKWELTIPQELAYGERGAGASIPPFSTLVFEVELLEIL
The assay is described as above.
With B8, the binding result is listed as “binds”. For B9, the binding entry was “binds”.

As for B10, the binding result is reported as “binds”.
